PMC5996148
Where “and” joins values, the source holds several entries; their conditions need not be identical. Identical values can stand only once. The list shows a part of the results.

Columns and labels:
Assay in all cases: protein microarray (ProtoArray v5.0), streptavidin-Alexa Fluor 647
Conditions in all cases: 3'-biotin; 20 mM Tris (pH 7.5), 5 mM MgCl2, 100 mM KCl, 0.1% Tween-20, A/T-rich and random oligonucleotide blockers; temperature not stated; high values mean tight binding
[1] = system: MAPRE2 (human)
[2] = system: MARVELD2 (human)
[3] = system: MASP2 (human)
[4] = system: MAT1A (human)
[5] = system: MAT2B (human)
[6] = system: MCEE (human)
[7] = system: MCFD2 (human)
[8] = system: MCM2 (human)
[9] = system: MCM6 (human)
[10] = system: MCM7 (human)
[11] = system: MDP-1 (human)
[12] = system: ME1 (human)
[13] = system: MED21 (human)
[14] = system: MED24 (human)
[15] = system: MED27 (human)
[16] = system: MED28 (human)
[17] = system: MED30 (human)
[18] = system: MEF2B (human)
[19] = system: MEIS2 (human)
[20] = system: MEIS3 (human)

GGGAGGCTGAGGCAGG [G4-1 biotinylated (PQS2)]
binding signal [1]: -0.326 z-score
binding signal [2]: -0.338 z-score
binding signal [3]: -0.316 z-score
binding signal [4]: -0.331 z-score
binding signal [5]: -0.337 z-score
binding signal [6]: -0.316 z-score
binding signal [7]: -0.348 z-score
binding signal [8]: -0.359 z-score and -0.354 z-score
binding signal [9]: -0.316 z-score
binding signal [10]: -0.324 z-score and -0.295 z-score and -0.317 z-score
binding signal [11]: -0.343 z-score and -0.355 z-score
binding signal [12]: -0.326 z-score
binding signal [13]: -0.368 z-score
binding signal [14]: -0.313 z-score
binding signal [15]: -0.253 z-score
binding signal [16]: -0.343 z-score
binding signal [17]: -0.32 z-score
binding signal [18]: -0.343 z-score
binding signal [19]: -0.355 z-score
binding signal [20]: -0.346 z-score
